The target in the test is MCH receptor (Homo sapiens, UniProt Q99705). Put plainly: High Throughput Functional Screening: FLIPR/FDSS6000 intracellular Ca2+ assay, antagonist activity against MCH. It is filed as cell-based. Particulars: FLIPR/FDSS, [Ca2+]i evoked by 50 nM MCH; class by percent of control at 10^−7 M or IC50. The source says:
Subsequently, a functional based assay was used to confirm the lead hits, referred to as FLIPR™ (the Fluorometric Imaging Plate Reader) and FDSS6000™ (Functional Drug Screening System). This assay utilized a non-endogenous, constitutively active version of the MCH receptor.
The FLIPR and FDSS assays are able to detect intracellular Ca^2+ concentration in cells, which can be utilized to assess receptor activation and determine whether a candidate compound is an, for example, antagonist, inverse agonist or agonist to a Gq-coupled receptor. […]
Fluorometric Imaging Plate Reader system was used to allow for rapid, kinetic measurements of intracellular fluorescence in 96 well microplates (or 384 well microplates). Simultaneous measurements of fluorescence in all wells can be made by FLIPR or FDSS6000™ every second with high sensitivity and precision. […]
Briefly, the cells are seeded into 96 well at 5.5×10^4 cells/well with complete culture media (Dulbecco's Modified Eagle Medium with 10% fetal bovine serum, 2 mM L-glutamine, 1 mM sodium pyruvate and 0.5 mg/mL G418, pH 7.4) for the assay next day. […] Fifty μl of wash buffer containing various concentration of MCH are added to each well, and transient changes in [Ca^2+]i evoked by MCH are monitored using the FLIPR™ or FDSS in 96 well plates at Ex. 488 nm and Em. […]

Results on one molecule are retold here after patent publication US20080090863A1, “Pyridine Derivatives and Their Use as Medicaments for Treating Diseases Related to Mch Receptor” (TAISHO PHARMACEUTICAL CO., LTD., priority 2004, published 2008).

Counter-ions that a name gives are not always drawn.

By IC50 is commonly meant the concentration at which inhibition is half-maximal. Higher therefore signals a need for much substance. On to `CN(C)c1cccc(N[C@H]2CC[C@@H](NC(=O)c3ccc(F)c(Cl)c3)CC2)n1` [Example 38, 3-Chloro-N-(cis-4-{[6-(dimethylamino)pyridin-2-yl]amino}cyclohexyl)-4-fluorobenzamide hydrochloride], for which the IC50 is less than 50 nM.
